{
  "source": "paper PMC3689047",
  "binders": {"B1": {"name": "recombinant His6-hMSH4 (protein, UniProt O15457 1-936)", "chain": "MLRPEISSTSPSAPAVSPSSGETRSPQGPRYNFGLQETPQSRPSVQVVSASTCPGTSGAAGDRSSSSSSLPCPAPNSRPAQGSYFGNKRAYAENTVASNFTFGASSSSARDTNYPQTLKTPLSTGNPQRSGYKSWTPQVGYSASSSSAISAHSPSVIVAVVEGRGLARGEIGMASIDLKNPQIILSQFADNTTYAKVITKLKILSPLEIIMSNTACAVGNSTKLFTLITENFKNVNFTTIQRKYFNETKGLEYIEQLCIAEFSTVLMEVQSKYYCLAAVAALLKYVEFIQNSVYAPKSLKICFQGSEQTAMIDSSSAQNLELLINNQDYRNNHTLFGVLNYTKTPGGSRRLRSNILEPLVDIETINMRLDCVQELLQDEELFFGLQSVISRFLDTEQLLSVLVQIPKQDTVNAAESKITNLIYLKHTLELVDPLKIAMKNCNTPLLRAYYGSLEDKRFGIILEKIKTVINDDARYMKGCLNMRTQKCYAVRSNINEFLDIARRTYTEIVDDIAGMISQLGEKYSLPLRTSFSSARGFFIQMTTDCIALPSDQLPSEFIKISKVKNSYSFTSADLIKMNERCQESLREIYHMTYMIVCKLLSEIYEHIHCLYKLSDTVSMLDMLLSFAHACTLSDYVRPEFTDTLAIKQGWHPILEKISAEKPIANNTYVTEGSNFLIITGPNMSGKSTYLKQIALCQIMAQIGSYVPAEYSSFRIAKQIFTRISTDDDIETNSSTFMKEMKEIAYILHNANDKSLILIDELGRGTNTEEGIGICYAVCEYLLSLKAFTLFATHFLELCHIDALYPNVENMHFEVQHVKNTSRNKEAILYTYKLSKGLTEEKNYGLKAAEVSSLPPSIVLDAKEITTQITRQILQNQRSTPEMERQRAVYHLATRLVQTARNSQLDPDSLRIYLSNLKKKYKEDFPRTEQVPEKTEE"}},
  "target": "GST-eIF3f aa106-361 (human)",
  "assay": "pull-down; GST pull-down of recombinant His6-hMSH4 with GST-eIF3f fusion proteins on Glutathione-Sepharose 4B beads",
  "note": "Results are given in words; binding and its absence hold for the method and conditions named. In cells and extracts the contact can be indirect. Binding calls can cover weak binding; strength is not graded here. Where a sequence is shown, tags or fusion partners need not be part of it.",
  "data": [
    {"binder": "B1", "values": [
      {"measurement": "binding", "result": "binds weakly"}
    ]}
  ]
}
